This passage reports binding results from patent KR20110024037A.

Sequences of proteins named here, by UniProt entry; tags and fusion partners are left off. Residues count along the entry.
UniProt P16003, residues 26-458: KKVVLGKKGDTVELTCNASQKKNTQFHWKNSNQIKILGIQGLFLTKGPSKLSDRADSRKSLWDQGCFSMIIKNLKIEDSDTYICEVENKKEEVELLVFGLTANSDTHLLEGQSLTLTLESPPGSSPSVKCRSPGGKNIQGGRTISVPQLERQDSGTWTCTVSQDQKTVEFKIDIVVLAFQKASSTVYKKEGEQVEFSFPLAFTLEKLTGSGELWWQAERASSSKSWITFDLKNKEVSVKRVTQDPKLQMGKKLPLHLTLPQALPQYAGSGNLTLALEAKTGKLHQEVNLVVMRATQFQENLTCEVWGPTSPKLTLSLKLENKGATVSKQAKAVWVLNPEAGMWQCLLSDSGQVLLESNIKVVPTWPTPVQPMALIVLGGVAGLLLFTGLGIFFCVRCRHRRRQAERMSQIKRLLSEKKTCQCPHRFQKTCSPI

No constants are given. Whether binding was seen depends on the method and setting. Some results given as binding are weak or reduced against the parent protein; the word gives no strength.

Assay [1] has as its target 원숭이 CD4 항원 (Rhesus monkey CD4) (monkey (Rhesus)) (UniProt P16003). Put plainly: flow cytometry on CHO CD4 transfectants, FITC anti-IgG secondary; CHO cells without CD4 as negative control. Background: Flow cytometry measures light scatter and fluorescence of single cells or particles in a stream.
Assay [2] shares this target. Nature of the assay: immunohistochemistry on frozen monkey spleen sections, DAB.

B1: 고 친화성 단일 클론 항 원숭이 CD4 항체 (수탁번호 KCLRF-BP-00211 융합세포주가 분비하는 단일클론항체) (antibody, V domains shown)
VH: QVQLQQSGAELAKPGASVKMSCKASGYTFTRNWMHWVKQRPGQGLEWIGYINPSTGYVEYNQKFRDKATLTADKSSNTAYIQLSSLTSEDSAVYFCATYRYDGNWGQGTLVTVS
VL: QIVLTQSPAIMSASLGERVTMTCTASSSVNSSNLHWYQQKPGSSPKLWIYSTSNLASGVPARFSGSGSGTSYSLTISSMEAEDAATYYCHQYHRSPLTFGAGTKLELKR
Take B1: the binding entry in assay [1] and in assay [2] was “binds” each time.
